Reference: PubChem BioAssay AID493014 (National Center for Advancing Translational Sciences (NCATS), 2011)
About 170 (0.05%) of roughly 340,000 compounds were called active. The shares of active, inactive and inconclusive entries below differ from those in the screen. The call rests on the fitted dose curve; in most records, active means well fitted inhibition curve with a large enough effect in the signal ratio, with a control signal flat (not every such curve was filed as active); inconclusive means small, poorly fitted or top-dose-only effect, or effect the other way, or a change in a side signal; inactive means flat fitted curve, though single readings scatter; the % refers to the signal ratio. Potencies of inconclusive entries are doubtful fits and often do not repeat.
Potency means the concentration at half of the fitted maximal effect.

Assay: qHTS Assay to Find Inhibitors of Chronic Active B-Cell Receptor Signaling;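 on activity change, negative = inhibition: plate controls were basal doxycycline-induced cells for no effect and cells given 10 µM MG132 for full effect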
Conditions: ABC-DLBCL IkBa-CBG/CBR reporter, luminescence ratio (green luciferase fused to IkBa over red control in TMD8 lymphoma cells), 4 h; activity change, negative = inhibition: at 46.1 µM (top of the series)
How it was run: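 TMD8 human ABC-DLBCL cells with doxycycline-inducible IκBα–green luciferase fusion and unfused red luciferase, in 0.5% FBS medium; compounds up to 46 uM, 4 h at 37C. Green/red luminescence ratio, filter-overlap corrected, fitted to concentration-response curves.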
For `CC(Sc1nc2ccccc2c(=O)n1CC1CCCO1)C(=O)Nc1ccc(S(N)(=O)=O)cc1` (stereo not given), the Potency was inconclusive: 25.9 µM [rising, partial curve, poor fit].
With `CCC(CC)C(=O)N1N=C(c2ccc(NS(C)(=O)=O)cc2)CC1c1ccc(C)cc1` (stereo not given) the activity change, negative = inhibition was “inactive”.
For `O=C(CCc1ccccc1)N(Cc1cccnc1)c1nc2ccc(F)cc2s1`, the activity change, negative = inhibition was inconclusive: 24.5%.
In the case of `Cc1ccccc1Nc1nc(N)c2ccccc2n1`, the activity change, negative = inhibition is reported as inconclusive: -16.9%.
With `CC(=O)NS(=O)(=O)c1ccc(NC(=O)c2cc(-c3ccc(C)cc3)nc3ccccc23)cc1` the Potency was inconclusive: 5.8 µM [rising, full curve, poor fit].
With `COC(=O)c1c(NC(=O)CSc2nncs2)sc2c1CCCCC2` the activity change, negative = inhibition was inconclusive: 0.012%.
In the case of `Cc1ccc(O)c(C(CC(=O)NC(C)C)c2ccccc2)c1` (stereo not given), the activity change, negative = inhibition is reported as inconclusive: 5.51%.
In the case of `COc1ccc(/C=C2/SC(=S)N(CCCC(=O)Nc3cccc(O)c3)C2=O)cc1`, the Potency is reported as inconclusive: 3.55 µM [rising, partial curve, poor fit].
In the case of `CCn1nc(C)c(Br)c1-c1nc(-c2cccc(C)c2)no1`, the Potency is reported as inconclusive: 3.98 µM [rising, full curve, poor fit].
For `CC[C@]1(C(=O)OC)[C@H]2C(=O)N(C)C(=O)[C@H]2[C@H]2CN=C(SCC3CC3)N21`, the activity change, negative = inhibition was “inactive”.
With `Cc1cccc(N(CC(=O)NC2CCCC2)C(=O)CCCC(=O)Nc2ccccn2)c1` the activity change, negative = inhibition was inconclusive: 20.5%.
With `CCCCC(CC)COP(=O)(OCC(CC)CCCC)OCC(CC)CCCC` (stereo not given) the Potency was inconclusive: 29.1 µM [falling, partial curve, poor fit].
For `NS(=O)(=O)c1ccc(CCNC(=O)CSc2nc3ccccc3c(=O)n2CCC(=O)N2CCCCC2)cc1`, the activity change, negative = inhibition was inconclusive: -0.425%.
For `CCCn1c(=O)c(C(=O)NNC(=O)c2ccccc2Cl)c(O)c2ccccc21`, the Potency was inconclusive: 15.8 µM [falling, partial curve].
In the case of `CCOC(=O)N1CCC(Nc2c(-c3ccccc3)c(=O)c2=O)CC1`, the activity change, negative = inhibition is reported as “inactive”.
With `COCCOC(=O)c1c(N)n(CCCN2CCOCC2)c2nc3ccccc3nc12` the activity change, negative = inhibition was inconclusive: 16.5%.
For `CC(=O)Nc1ccc(S(=O)(=O)Nc2ccc3c(c2)C(=O)OC3)cc1`, the activity change, negative = inhibition was “inactive”.
In the case of `O=C(CCc1ccc(S(=O)(=O)NCc2ccccc2)cc1)NCc1ccc2c(c1)OCO2`, the activity change, negative = inhibition is reported as inconclusive: 9.89%.
In the case of `CCOc1ccccc1C(=O)Nc1ccc(S(=O)(=O)Nc2nccc(C)n2)cc1`, the activity change, negative = inhibition is reported as “inactive”.
In the case of `CC1CCN(c2oc(-c3ccccc3Cl)nc2C#N)CC1`, the activity change, negative = inhibition is reported as inconclusive: -16.4%.
For `O=C(N/N=C/c1ccccc1C(F)(F)F)c1ccc2nc[nH]c2c1`, the Potency was inconclusive: 2.24 µM [falling, full curve, poor fit].
For `Cc1nc(-c2cccc(C(F)(F)F)c2)sc1C(=O)O`, the activity change, negative = inhibition was inconclusive: 12.2%.
In the case of `CN(C)c1ccc(NC(=O)c2cn(-c3ccccc3)nc2-c2cccs2)cc1`, the activity change, negative = inhibition is reported as “inactive”.
With `CCOC(=O)c1c(C)[nH]c(C(=O)OCC(=O)N2c3ccccc3CC2C)c1C` (stereo not given) the activity change, negative = inhibition was inconclusive: 0.164%.
For `Cc1ccc(OCc2cc(C(=O)NC(C)Cc3cccnc3)no2)cc1C` (stereo not given), the Potency was inconclusive: 15.8 µM [falling, single point].
For `CCOC(=O)c1cnc(SCc2nc(N)nc(Nc3ccc(C)cc3)n2)nc1N`, the activity change, negative = inhibition was inconclusive: 3.58%.
In the case of `COc1ccc(CCNC(=O)C(=O)NCC2OCCN2S(=O)(=O)c2cc(F)ccc2F)cc1` (stereo not given), the activity change, negative = inhibition is reported as “inactive”.
With `O=C(COc1ccc2ccc(=O)oc2c1)NC1CCCCC1` the activity change, negative = inhibition was inconclusive: 3.12%.
In the case of `Cc1c(OC(C)C(=O)N[C@@H](Cc2ccccc2)C(=O)O)ccc2c3c(c(=O)oc12)CCCC3` (stereo not given in full), the activity change, negative = inhibition is reported as inconclusive: 1.01%.
In the case of `CCC(C)C(NC(=O)C1CCC(C)CC1)C(=O)Nc1cc(OC)ccc1OC` (stereo not given), the activity change, negative = inhibition is reported as inconclusive: -1.11%.
For `COc1cccc(/C=N/n2nnnc2N)c1O`, the activity change, negative = inhibition was inconclusive: 11.1%.
In the case of `CN(CC(=O)Nc1ccc(Cl)c(C(F)(F)F)c1)C(=O)C1CC(=O)N(Cc2ccco2)C1` (stereo not given), the activity change, negative = inhibition is reported as inconclusive: 10.9%.
In the case of `COC(=O)C1=C(C)NC(C)=C(C(=O)OCC2CCCO2)C1c1ccc(Cl)c([N+](=O)[O-])c1` (stereo not given), the activity change, negative = inhibition is reported as inconclusive: 3.15%.
For `Cc1nc2cc(S(=O)(=O)N(C)C)ccc2n1-c1ccccc1`, the activity change, negative = inhibition was inconclusive: 0.468%.
With `COC(C[C@@H]1O[C@@H]1[C@@H](O)[C@H](C)OCc1ccccc1)OC` the activity change, negative = inhibition was inconclusive: -1.67%.
For `O=C(N/N=C/C(Br)=C\c1ccccc1)c1ccc2nc[nH]c2c1`, the Potency was inconclusive: 29.1 µM [cytotoxic, single point].
With `Cc1c(C(=O)OCC(=O)Nc2c(C)n(C)n(-c3ccccc3)c2=O)oc2ccccc12` the activity change, negative = inhibition was “inactive”.
With `S=c1[nH]c(-c2ccc(Cl)cc2)cs1` the activity change, negative = inhibition was inconclusive: -0.45%.
In the case of `COC(=O)C1=C(C)N(Cc2ccccc2)C(=NCc2ccc(OC)cc2)N[C@H]1c1ccc(Br)cc1`, the activity change, negative = inhibition is reported as “inactive”.
For `C[N+]1(CC(=O)OCCCC2CCCCC2)CCCC1`, the activity change, negative = inhibition was “inactive”.
In the case of `O=C(COC(=O)c1ccccc1O)Nc1ccc(N2CCOCC2)cc1`, the Potency is reported as inconclusive: 32.6 µM [rising, partial curve, poor fit].
In the case of `CC(OC(=O)Cn1[nH]c(=O)c2ccccc2c1=O)C(=O)Nc1ccc(Cl)cn1` (stereo not given), the Potency is reported as inconclusive: 23.1 µM [falling, single point].
In the case of `Cc1ccccc1NC(=S)NCCO`, the activity change, negative = inhibition is reported as “inactive”.
For `COc1cc(OC)c(OC)cc1CN(C)CC1CCCN(CCc2ccccc2F)C1` (stereo not given), the activity change, negative = inhibition was “inactive”.
In the case of `Cc1cc(C(=O)COC(=O)c2ccccc2O)c(C)n1CC1CCCO1` (stereo not given), the activity change, negative = inhibition is reported as inconclusive: -0.249%.
In the case of `O=C(O)C1CCCCC1C(=O)Nc1ccc(-c2ccccc2)cc1` (stereo not given), the activity change, negative = inhibition is reported as inconclusive: 2.8%.
For `O=C(CSC1=NCCS1)Nc1nc2ccccc2s1`, the Potency was inconclusive: 6.51 µM [falling, single point].
In the case of `Nc1ccc(C(=O)OCc2nc3cc4ccccc4cc3[nH]2)cc1`, the activity change, negative = inhibition is reported as inconclusive: -11.6%.
For `Cc1cc(C)nc(SCCn2c(N3CCOCC3)nc3c2c(=O)[nH]c(=O)n3C)n1`, the Potency was inconclusive: 15.8 µM [falling, partial curve, poor fit].
In the case of `COc1ccccc1NC(=O)CN1CCN(CC(=O)Nc2ccc(F)cc2)CC1`, the Potency is reported as inconclusive: 16.4 µM [falling, partial curve, poor fit].
